Experimental data from patent US20090226956.

The chains behind the UniProt entries cited, without tags or fusion partners. A line that says so, or that is headed by a name, gives the form on record, which may keep a tag or linker.
UniProt Q08775, other isoform, or with tags, fused parts or gaps: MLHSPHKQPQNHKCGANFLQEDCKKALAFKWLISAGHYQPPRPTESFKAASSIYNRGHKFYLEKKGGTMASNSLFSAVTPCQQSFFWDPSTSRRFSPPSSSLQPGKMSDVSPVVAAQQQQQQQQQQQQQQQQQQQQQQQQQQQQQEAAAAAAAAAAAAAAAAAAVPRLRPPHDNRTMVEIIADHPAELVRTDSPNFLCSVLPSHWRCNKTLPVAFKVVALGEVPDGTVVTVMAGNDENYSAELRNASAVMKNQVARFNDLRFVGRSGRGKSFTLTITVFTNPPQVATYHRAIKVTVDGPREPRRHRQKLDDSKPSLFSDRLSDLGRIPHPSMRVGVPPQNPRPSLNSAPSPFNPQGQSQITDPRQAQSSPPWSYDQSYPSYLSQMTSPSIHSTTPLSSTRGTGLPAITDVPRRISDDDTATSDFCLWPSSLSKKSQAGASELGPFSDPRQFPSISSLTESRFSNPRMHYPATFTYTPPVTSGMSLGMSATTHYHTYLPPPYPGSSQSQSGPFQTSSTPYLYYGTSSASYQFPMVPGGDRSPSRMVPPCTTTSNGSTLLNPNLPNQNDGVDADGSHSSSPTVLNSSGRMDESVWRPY
UniProt Q01196, whole entry: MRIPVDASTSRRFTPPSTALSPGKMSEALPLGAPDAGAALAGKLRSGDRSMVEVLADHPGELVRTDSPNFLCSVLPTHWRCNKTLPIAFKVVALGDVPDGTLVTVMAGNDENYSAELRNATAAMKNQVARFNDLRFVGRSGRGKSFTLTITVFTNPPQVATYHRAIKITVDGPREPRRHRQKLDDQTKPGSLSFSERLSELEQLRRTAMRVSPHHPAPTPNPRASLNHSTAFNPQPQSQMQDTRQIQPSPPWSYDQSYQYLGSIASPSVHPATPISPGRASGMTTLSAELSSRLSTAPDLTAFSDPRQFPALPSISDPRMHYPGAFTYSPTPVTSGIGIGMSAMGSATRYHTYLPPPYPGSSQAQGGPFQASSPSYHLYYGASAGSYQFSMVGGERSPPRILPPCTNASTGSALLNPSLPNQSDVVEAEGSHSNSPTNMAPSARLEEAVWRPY
UniProt Q13950, other isoform, or with tags, fused parts or gaps: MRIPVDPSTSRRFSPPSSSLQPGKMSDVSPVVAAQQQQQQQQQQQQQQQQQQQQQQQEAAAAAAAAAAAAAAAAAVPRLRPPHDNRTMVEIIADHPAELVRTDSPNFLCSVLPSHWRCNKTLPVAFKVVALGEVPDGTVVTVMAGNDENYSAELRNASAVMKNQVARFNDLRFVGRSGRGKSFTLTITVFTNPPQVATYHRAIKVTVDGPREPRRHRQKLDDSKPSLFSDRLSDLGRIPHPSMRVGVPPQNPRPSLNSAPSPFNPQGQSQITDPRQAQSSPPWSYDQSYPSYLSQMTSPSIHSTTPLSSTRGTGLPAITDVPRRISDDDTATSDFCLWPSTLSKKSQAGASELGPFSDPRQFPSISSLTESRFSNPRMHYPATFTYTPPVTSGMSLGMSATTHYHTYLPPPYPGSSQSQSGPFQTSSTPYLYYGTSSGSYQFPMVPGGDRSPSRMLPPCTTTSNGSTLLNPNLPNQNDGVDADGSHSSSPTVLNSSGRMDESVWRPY

Legend:
Test in all cases: EMSA
Runx2 (Mus musculus) = Runx2 (Mus musculus) (UniProt Q08775); conditions: complex sensitive to native but not boiled Runx2 antibody; inhibited by GST-AR-DBD, not by GST or A573D mutant; 20 mM Hepes pH 7.5, 50 mM KCl, 1 mM MgCl2, on ice; protein in an extract; protein details: endogenous, MC3T3-E1 whole cell extract; label: 32P
Runx1 (Homo sapiens) = Runx1 (Homo sapiens) (UniProt Q01196); conditions: protein in an extract; protein details: endogenous, PC3 whole cell extract; label: 32P
Runx2 (Homo sapiens) = Runx2 (Homo sapiens) (UniProt Q13950); conditions: protein in an extract; protein details: endogenous, PC3 whole cell extract; label: 32P

Measured: binding result

AGCTGCAATCACCAACCACAGCA (double strand) [OSE2 probe]
binds: all assays above

Results from cells or extracts need not show a direct contact. For part of these data: The exact form of at least one protein or probe is not confirmed.
